Experimental data published in the supplement of paper PMC3334620.
Whole data set: some 33,000 sequences, median “E-score (-0.5 to 0.5)” near -0.015, cut for the highest 2% near 0.3. This is one part of the list.

Each sequence was assayed against T1, Abf1 (UniProt P14164) (assay: PBM E-score (8-mer binding enrichment) (E-score (-0.5 to 0.5)); higher = stronger / more preferred TF binding). Conditions: protein concentration: 200 nM; construct: GST-full length.
T1 sequence: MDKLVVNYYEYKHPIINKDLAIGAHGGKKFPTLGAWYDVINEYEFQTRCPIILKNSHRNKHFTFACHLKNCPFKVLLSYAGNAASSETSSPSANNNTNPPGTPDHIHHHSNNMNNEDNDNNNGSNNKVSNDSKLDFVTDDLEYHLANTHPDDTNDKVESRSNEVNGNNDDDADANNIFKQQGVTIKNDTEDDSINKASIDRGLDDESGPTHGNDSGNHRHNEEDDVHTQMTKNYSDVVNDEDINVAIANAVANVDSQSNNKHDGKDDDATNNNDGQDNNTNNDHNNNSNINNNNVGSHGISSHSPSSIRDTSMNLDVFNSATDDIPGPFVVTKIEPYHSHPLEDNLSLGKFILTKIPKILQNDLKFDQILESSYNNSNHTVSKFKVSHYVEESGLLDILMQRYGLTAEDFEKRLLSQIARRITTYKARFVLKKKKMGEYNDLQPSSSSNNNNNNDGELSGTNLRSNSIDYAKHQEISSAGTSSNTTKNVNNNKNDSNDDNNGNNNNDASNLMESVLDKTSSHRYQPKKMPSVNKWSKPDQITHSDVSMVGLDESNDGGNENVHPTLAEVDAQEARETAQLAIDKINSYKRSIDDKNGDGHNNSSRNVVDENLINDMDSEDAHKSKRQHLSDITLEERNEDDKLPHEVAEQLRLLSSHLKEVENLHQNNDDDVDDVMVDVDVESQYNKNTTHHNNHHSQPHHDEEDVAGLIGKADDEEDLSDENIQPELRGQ
Method in brief: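 Yeast transcription factors carrying a GST tag, as full-length proteins or DNA-binding domains, were produced by PURExpress in vitro transcription/translation. About 100-200 nM protein was applied to universal all-10-mer Agilent arrays, double-stranded by primer extension on fresh or once-stripped slides. Bound protein was detected with fluorescent anti-GST, and scans were normalised with masliner. The Universal PBM Analysis Suite gave each ungapped eight-base word, pooled with its reverse complement, an E-score, a modified Wilcoxon-Mann-Whitney statistic.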

Sequence | PBM E-score
ACTGGCAT | -0.21
CAATTATG | 0.0589
CGGGGCCA | -0.0201
CACACCTA | -0.0844
ACGCATAG | 0.0376
CTCGGAAC | 0.174
ATCGTGTA | 0.376
CTGTTCTA | 0.0486
CATGATAA | 0.356
CGGCTCAG | -0.00996
TGTAGACA | -0.0107
CAGTCGCA | -0.142
ACGCATCT | 0.00362
GCATGTCC | -0.165
ACCGAATC | -0.016
ACAAGCGC | -0.189
CTGCCACC | -0.256
CTTAAGCC | -0.0745
CCCAACGC | -0.172
ACTTCACA | 0.111
CAACATAC | 0.0736
GAGTGCGA | -0.109
AATTGTAC | 0.145
ACGGCCCG | 0.182
CAGAGCAG | -0.105

Sequence | PBM E-score
ACAAGAAT | 0.121
ACTGTTTG | 0.111
AGTATACA | 0.159
GACTTAAA | 0.0992
ACTCTCTC | -0.113
ATGCGTTG | 0.0612
GCATCCAC | 0.0454
GGTTTAAC | -0.0352
CTGGGAAC | 0.18
ACTTTGGA | -0.00181
CTGTGGTA | -0.146
AACCTTAC | 0.0623
GCCAGAAA | -0.0305
ACTGTCCG | -0.0247
TACAACAA | 0.164
CGCTGAGA | 0.0962
TGCGTACA | 0.0613
CTATGAAA | -0.184
ATATAACA | 0.188
CCATATAC | 0.215
CAGCAGTC | -0.0993
ACACTTCT | -0.0503
AGGGCGGC | -0.31
ATTGATAG | -0.0465
GACACCTA | 0.00716

Sequence | PBM E-score
AATCTACC | 0.0615
GTCTGTTA | 0.00602
GTTCATAA | -0.0308
AGCCATAT | 0.139
ATCGTGCA | 0.282
ATCGAGAC | -0.0469
CGTGTGAA | 0.311
GCGATCTA | 0.116
CCAAGGAG | -0.239
CAGGTTCA | -0.237
CTGGACTA | -0.186
AGATAATC | 0.137
GATCCAGA | 0.101
CAGCGATA | 0.16
CTCTGGTC | -0.164
AAGGCAGA | -0.139
GTCTCCAC | 0.0228
ACGTACTC | 0.254
CCCTATAA | -0.237
TCCATAAA | -0.0481
CGATCCTC | 0.0191
AATGGTTA | -0.0828
CCACGCCG | 0.0972
AAGATTCA | 0.0295
AAGACTAT | -0.0973

Sequence | PBM E-score
CAGCCTAA | -0.131
AAGGGACT | -0.0432
GACACAGA | -0.119
CTTCGCGC | 0.0468
CAACACGG | 0.0441
ACGGACAC | 0.0423
CTCCTCGA | -0.0241
CCATCGAG | 0.0335
TATTAATA | 0.00602
CCGCTCAG | -0.154
CCAACTAC | -0.035
AATTGAAG | -0.0559
AGAAGCGC | -0.0211
ACTAGGAG | -0.146
GACGCAGC | -0.202
AATAGGAG | -0.0982
TAGAAAGA | -0.196
CGGTCCGA | -0.071
AAGTGTAG | -0.00418
ACTCTTAC | 0.0283
GCCCAGAC | -0.359
CCTGAAAA | -0.135
ATAGTGAT | 0.436
CCGGTCGC | -0.133
AAAAAGTG | 0.133

Reprinted at random: five entries already listed, in no set order.
Sequence | PBM E-score
GACGCAGC | -0.202
GCCCAGAC | -0.359
CGGTCCGA | -0.071
CCATCGAG | 0.0335
AATTGAAG | -0.0559

Laid out differently: results already given
ATTGATAG
  PBM E-score: -0.0465
ACGTACTC
  PBM E-score: 0.254

Carrying on.

Sequence | PBM E-score
ACAAGCAC | -0.0733
GTGTACGA | 0.337
GCGCCCTA | 0.0153
AGATTTGA | 0.0784
AGTCTTGC | 0.0122
ATCTTTCA | 0.233
GGGGTTCA | -0.242
AGTCCAAC | -0.0833
AATAAGTA | 0.185
AGGGGACG | -0.074
CATACCCA | -0.115
AAGCCCTT | -0.208
CTGGTTCA | -0.21
CATTTATA | 0.0769
AGAACAAC | -0.0587
CGACACTA | 0.134
GCCGTGGA | 0.195
ACCGACTG | -0.142
AACAAAAC | 0.0702
ATAACAGA | 0.156
TACCGGCA | 0.00574
CAGTAGGA | -0.109
AAATCCTT | -0.0769
AGGGTTGA | 0.0068
CACCGGTC | -0.225

Sequence | PBM E-score
ACGCAAGG | 0.0355
CTACCTCA | 0.0362
AGCGCTAG | -0.093
CATGTCCG | 0.0742
CCCGGGCA | -0.249
CTCGAATC | -0.0489
AGACCGGG | -0.142
CCGGACGA | 0.224
CCTTCAGA | -0.183
CACACGCG | 0.00836
ATGTTAGG | 0.0436
AGAAGTCT | -0.189
GAGATTCC | -0.0944
AATCTTCC | -0.0659
ACACAAGA | -0.102
CCATTAGA | -0.182
ATCTAATG | -0.0859
CTACATTA | 0.00301
CACAAACA | 0.0103
AGAACACC | -0.225
GAGTCCCA | -0.122
ATTACGAC | 0.237
AGTTAGGG | -0.107
CCCGTTCC | 0.0441
AAACTTAA | 0.0359

Sequence | PBM E-score
AACTGAGC | -0.0642
CCGATAGG | -0.152
CGTCATGC | 0.144
ATCAATGG | -0.0171
AGACGTGA | 0.227
AGACATGG | -0.0803
GTTTGTGA | -0.0115
ACGAACGA | 0.314
AGAATATC | 0.218
AGGAGAAT | -0.28
AGTTGATC | 0.091
ACTGCCAA | 0.123
TTCGCAAA | 0.00168
AACCCCTG | -0.289
GCAACGAA | 0.227
ATCTAAAC | 0.00327
AAGGTCTC | -0.137
AATTGATG | 0.103
ATGACGTC | 0.231
AGTTCATG | 0.0344
CAATCAGC | 0.0586
AACAGGTT | -0.206
